Source: US9757596B2, “Composition comprising at least 3 different diols” (AMBRIA DERMATOLOGY AB, priority 2004, dated 2017)
Some of these results come from one statement about several compounds together.

Tested on: Staphylococcus aureus number 515×6352
Experiment: Test for bacteriostatic effect (MIC) in agar medium, S. aureus
Assay type: cell-based
Details: cell concentration not specified; combinations: % of each diol
Experimental: Staphylococcus aureus number 515×6352 and Candida albicans H 29 were obtained from the Collection in the Department of Microbiology, Sahigrenska University Hospital, Gothenburg, Sweden. The isolates were maintained on blood agar at 37° C. M. sympodialis CBS 7222 and M. globosa CBS 7966
Test for bacteriostatic effect (MIC=minimal inhitory concentration).
Each of the diols and their combination (1:1:1 volume/volume) was diluted directly with the test culture medium, Diagnostic Sensitivity test agar (DST) (Oxoid, UK) to obtain concentrations, in the test medium, of 2, 3, 4, 6, 9, and 12% volume percent of the respective diol and of 2, 3, and 4% of the respective diol in the combination.
S. aureus cells were added to the agar medium in concentrations of 10^3 and 10^5 cells/ml while C. albicans cells were added in a concentration of 10^6 cells/ml and M. sympodialis and M. globosa in a concentration of 10^7 cells/ml. Plates were incubated at 37° C. and analysed after 1 and 2 days. Each experiment was repeated. […] The MIC's for propane-1,2-diol, pentane-1,5-diol, 2-methylpentane-2,4-diol and the combination of these 3 diols are shown in the table 1. […]

Row | SMILES | concentration that completely inhibited the growth of S. aureus [%]
1 | CC(O)CCO (centres unmarked) [Butane-1,3-diol] | > 12
2 | CC(O)CO (centres unmarked) [Propane-1,2-diol] | > 12
